# The whole screen tested about 300,000 compounds, of which about 3,700 (1.2%) were called active. The inconclusive results got no clear call from the source; some entries with a clear call stand among them for comparison. Calls follow the shape of the full dose curve; tested in HEK293 cells. Potencies beside an inconclusive call are fits to weak or partial responses and may not hold up.
# Test: qHTS for Inhibitors of binding or entry into cells for Lassa Virus; also: nearly all actives have a fitted effect of over 50% in size
# Details: Lassa virus pseudotype entry inhibition, cell reporter; series mostly up to 37.9 µM
# Potency is read from the fitted curve at half-maximal effect.
row,Structure (SMILES),Potency
1,N#CCN(C(=O)COC(=O)CCCNC(=O)c1ccc(Cl)cc1)c1ccccc1,inactive
2,CCCCCCCC(=O)N/N=C(\C)c1ccc(O)cc1O,"inconclusive: 16.4 µM [inhibitor, partial curve, poor fit]"
3,CCN(CC)S(=O)(=O)c1cc(NC(=O)CNc2c(C)n(C)n(-c3ccccc3)c2=O)ccc1C,"inconclusive: 8.91 µM [inhibitor, partial curve, poor fit]"
4,O=C1/C(=C/c2ccc(N3CCOCC3)o2)SC(=Nc2ccccc2)N1CCc1c[nH]c2ccccc12,active: 7.08 µM
5,COc1ccc(C(=O)Nc2cc(C)nn2-c2ccc(C)cc2)cc1,"inconclusive: 12.6 µM [inhibitor, partial curve, poor fit]"
6,Cc1ccc(-c2cc(C(F)F)nc(S(C)(=O)=O)n2)cc1,"inconclusive: 35.5 µM [inhibitor, single point]"
7,O=C1CC(c2cccc(Cl)c2)c2cc3c(cc2N1)CCC3 (configuration not stated),"inconclusive: 6.51 µM [inhibitor, full curve, poor fit]"
8,CC(C)CC(NC(=O)C1CCCCC1)C(=O)NC(C)c1ccccc1 (configuration not stated),"inconclusive: 1.26 µM [inhibitor, single point]"
9,CCOC(=O)N1CCN(C(=O)/C(=C\c2ccc(SC)cc2)NC(=O)c2ccccc2)CC1,"inconclusive: 0.0891 µM [inhibitor, full curve, poor fit]"
10,CNC(=O)Cn1c(C)cc(=O)c2cccc(C)c21,"inconclusive: 0.112 µM [activator, full curve, poor fit]"
11,CCCCn1c(-c2ccccc2)cnc1SCC(=O)NCCc1ccc(OC)c(OC)c1,"inconclusive: 18.3 µM [inhibitor, single point]"
12,O=C(OCC(=O)N1CCN(c2ccccc2)CC1)c1cccc(Cl)c1,inactive
13,COc1cccc(N(C(=O)Cn2nnc(-c3cccs3)n2)C(C(=O)NC(C)C)c2ccc(C)o2)c1 (configuration not stated),inactive
14,Cc1c(OCC(=O)NCCN2CCOCC2)ccc2c(-c3ccccc3)cc(=O)oc12,"inconclusive: 22.4 µM [activator, partial curve, poor fit]"
15,Nc1c(C(=O)c2ccccc2)sc2c1c(=O)[nH]c(=O)n2-c1ccccc1,"inconclusive: 10 µM [inhibitor, partial curve, poor fit]"
16,Cc1csc(NC(=O)/C=C/c2ccc(C)o2)n1,inactive
17,CCOC(=O)C1=C(C)Nc2sc(C(=O)c3ccc(OC)cc3)c(N)c2C1c1ccc(C(=O)OC)cc1 (configuration not stated),"inconclusive: 3.98 µM [inhibitor, full curve, poor fit]"
18,COc1ccc(CNc2ncnc3c2cnn3-c2ccc(C)c(C)c2)cc1,inactive
19,c1ccc2nc(-c3ccncc3)ccc2c1,"inconclusive: 4.61 µM [activator, single point]"
20,COc1ccc(/C=C/C(=O)Nc2sc(Cc3ccccc3)c(C)c2C(N)=O)cc1,"inconclusive: 5.01 µM [inhibitor, full curve]"
21,O=c1c2ccccc2nc(COc2ccccc2)n1/N=C/c1ccco1,"inconclusive: 14.1 µM [activator, single point]"
22,CCCCC(=O)Nc1ccccc1CC,"inconclusive: 12.6 µM [activator, partial curve, poor fit]"
23,c1ccc2c(c1)CNc1ccccc1O2,"inconclusive: 25.1 µM [inhibitor, single point]"

row,Structure (SMILES),Potency
1,O=C(Nc1cccc(Cl)c1)c1ccc(F)c(S(=O)(=O)N2CCN(c3ccccn3)CC2)c1,"inconclusive: 23.1 µM [inhibitor, single point]"
2,COc1ccc(NC(=S)N2CCC(c3nc4ccccc4[nH]3)CC2)c(OC)c1,"inconclusive: 3.66 µM [inhibitor, single point]"
3,CCN(C(=O)COc1cccnc1[N+](=O)[O-])C1CCS(=O)(=O)C1 (configuration not stated),"inconclusive: 29.1 µM [activator, partial curve, poor fit]"
4,Cc1onc(-c2ccccc2)c1C(=O)Nc1ccc(S(=O)(=O)N2CCOCC2)cc1,"inconclusive: 14.1 µM [inhibitor, single point]"
5,CCc1ccc(-c2cc(C)no2)cc1S(=O)(=O)N1CCN(c2ccccc2F)CC1,"inconclusive: 6.31 µM [inhibitor, full curve, poor fit]"
6,O=c1c2ccccc2nc(-c2ccco2)n1Cc1ccccc1,inactive
7,CCOC(=O)c1[nH]c2cc3c(cc2c1NC(=O)CN1CCc2ccccc2C1)OCO3,"inconclusive: 31.6 µM [inhibitor, single point]"
8,O=S(=O)(c1cccc(C(F)(F)F)c1)N1CCC(c2cc(-c3cccc4ccccc34)n[nH]2)CC1,"inconclusive: 23.1 µM [inhibitor, single point]"
9,Cc1ccc(S(=O)(=O)N2C(=O)C(C)SC2=Nc2ccccc2)cc1 (configuration not stated),"inconclusive: 1 µM [inhibitor, single point]"
10,COc1ccc(C(=O)/C=C/Nc2cc(C)on2)c(OC)c1,inactive
11,O=C(O)C1CCCN1C(=O)C12CC3CC(CC(C3)C1)C2 (configuration not stated),inactive
12,COc1ccccc1Cc1nc2ccccc2nc1SCC(=O)NCc1ccccc1Cl,inactive
13,CN1CCc2nc3sc(C(=O)Nc4ccccc4C(F)(F)F)c(N)c3cc2C1,inactive
14,O=C1C(F)=CC(COC(c2ccccc2)(c2ccccc2)c2ccccc2)OC1n1cc(F)c(=O)[nH]c1=O (configuration not stated),active: 5.62 µM
15,O=[N+]([O-])c1ccc(Cl)c(/C=N/n2c(-c3ccncc3)n[nH]c2=S)c1,inactive
16,Cc1cccc(C(=O)Nc2ccc(C(=O)N/N=C/c3cccc(C)n3)cc2)c1,inactive
17,Cc1nc2cc(-c3ccccc3)sc2c(=O)n1N,"inconclusive: 1.12 µM [inhibitor, full curve, poor fit]"
18,O=C(c1ccco1)N1CCN(C(c2ccccn2)c2nnnn2C2CCCC2)CC1 (configuration not stated),inactive
19,Cc1ccccc1C(=O)Nc1c2c(nn1C(C)(C)C)CS(=O)(=O)C2,inactive
20,COc1cccc(C(=O)O/N=C(\N)c2ccncc2)c1OC,"inconclusive: 5.62 µM [activator, single point]"
21,Cc1ccccc1N(C(=O)c1cccs1)c1nc2ccccc2s1,"inconclusive: 35.5 µM [inhibitor, single point]"
22,Cc1ccsc1/C=N/Nc1ncc(Cl)cc1Cl,"inconclusive: 35.5 µM [inhibitor, single point]"
23,C=CCNC(=O)C1CCN(c2nc(C)cc(-c3ccccc3)n2)CC1,"inconclusive: 1.46 µM [activator, full curve]"

row,Structure (SMILES),Potency
1,Cc1cc(C)c(C(=O)COC(=O)c2cccc(S(=O)(=O)NCc3ccccc3)c2)cc1C,"inconclusive: 12.6 µM [inhibitor, partial curve, poor fit]"
2,CN(C)CCN(C(=O)c1ccc2c(c1)OCCO2)c1nc2ccc(Cl)cc2s1,inactive
3,C=CC1CN2CCC1CC2[C@@H](OC(=O)c1ccc(OC)cc1)c1ccnc2ccccc12 (some centres not stated),"inconclusive: 13 µM [inhibitor, partial curve, poor fit]"
4,CC(C)(C)c1ccc(OCC(=O)NNC(=O)CCc2ccccc2)cc1,"inconclusive: 35.5 µM [activator, partial curve, poor fit]"
5,O=C(C[n+]1ccc(/C=N/O)cc1)N(Cc1ccccc1)Cc1ccccc1,inactive
6,CCOc1cccc(NC(=O)C(Cc2cccs2)c2nn[nH]n2)c1 (configuration not stated),inactive
7,C=CCc1cccc(CNc2nc3ccccc3n2CCN2CCOCC2)c1O,"inconclusive: 25.9 µM [activator, single point]"
8,Cc1nnc2n(Cc3ccccc3)c(=O)c3c4c(sc3n12)COC(C(C)C)C4 (configuration not stated),"inconclusive: 15.8 µM [inhibitor, single point]"
9,CC1=Nc2cc(C(=O)NCCc3ccc(Cl)cc3)ccc2Sc2c(C)ccc(C)c21,"inconclusive: 22.4 µM [inhibitor, partial curve, poor fit]"
10,COc1cc(NC(=O)CN2CCCCC2C)c(C)cc1[N+](=O)[O-] (configuration not stated),"inconclusive: 16.4 µM [activator, single point]"
11,O=C(CCl)Nc1ccc2c(c1)OCO2,"inconclusive: 11.2 µM [inhibitor, single point]"
12,CCc1ccc(C(C)NC(=O)C2CCCC2)cc1 (configuration not stated),inactive
13,CC(C)(C)C1CCC2(CC1)C(C#N)=C(SCC(=O)Nc1ccccc1)NC(=O)C2C#N (configuration not stated),"inconclusive: 17.8 µM [inhibitor, single point]"
14,Cc1ccc(-c2ccc(/C=C/C(=O)c3ccccc3)o2)cc1,"inconclusive: 11.2 µM [inhibitor, partial curve, poor fit]"
15,O=[N+]([O-])c1cc(S(=O)(=O)NCCCN2CCOCC2)ccc1Cl,"inconclusive: 20 µM [inhibitor, partial curve, poor fit]"
16,COc1cc(OC)cc(C(=O)N2CCC(N3CCN(c4ccccc4OC)CC3)CC2)c1,"inconclusive: 0.631 µM [inhibitor, full curve, poor fit]"
17,CCCOc1ccc(C2C(C(=O)OC)=CN(CCOC)C=C2C(=O)OC)cc1,"inconclusive: 15.8 µM [inhibitor, single point]"
18,Nc1ccc2nc(CCc3ccccc3)[nH]c2c1,"inconclusive: 5.62 µM [activator, full curve]"
19,Cc1ccc(/C=C2/C(=O)NC(=O)N(CCc3ccc(F)cc3)C2=O)s1,inactive
20,CC(C)C(NC(=O)c1c(F)cccc1F)C(=O)NC1CC(C)(C)NC(C)(C)C1 (configuration not stated),inactive
21,COc1ccc(Cc2nc3ccc(C(=O)NCCn4cccn4)cc3o2)cc1,"inconclusive: 28.2 µM [inhibitor, single point]"

# By substructure: the compounds so far containing a CF3 group (2)
row,Structure (SMILES),Potency
8,O=S(=O)(c1cccc(C(F)(F)F)c1)N1CCC(c2cc(-c3cccc4ccccc34)n[nH]2)CC1,"inconclusive: 23.1 µM [inhibitor, single point]"
13,CN1CCc2nc3sc(C(=O)Nc4ccccc4C(F)(F)F)c(N)c3cc2C1,inactive
